How the values were obtained:
A549 cells [1] = assay: Cellular uptake and distribution by ICP-MS; assay type: cell-based, human; details: 30 μM, 24 h
A549 cells [2] = assay: Intracellular distribution by ToF-SIMS imaging; assay type: cell-based, human; details: 30 μM, 310 K

SMILES | Pt incorporated to DNA (A549 cells [1]) | Pt incorporated to membrane protein (A549 cells [1]) | distribution of Pt-containing fragment signals in the cell (A549 cells [2]; 3 h) | distribution of Pt-containing fragment signals in the cell (A549 cells [2]; 3–12 h) | distribution of Pt-containing fragment signals in the cell (A549 cells [2]; 24 h)
COc1cc2ncnc(Nc3ccc(F)c(Cl)c3)c2cc1OCCCn1cc[n+]([Pt-2]23[n+]4ccccc4-c4cc(-c5ccc(C)cc5)cc([n+]42)-c2cccc[n+]23)c1.F[P-](F)(F)(F)(F)F.F[P-](F)(F)(F)(F)F [Complex 2] | 0.19 ± 0.03 nmol Pt to 1 mg DNA | 0.43 ± 0.07 nmol Pt to 1 mg membrane prote | observed more in the cell membrane/cytoplasm and less in the nucleus |  | 
COc1cc2ncnc(Nc3ccc(F)c(Cl)c3)c2cc1OCCCn1cc[n+]([Pt-2]23[n+]4ccccc4-c4cc(-c5ccc(Br)cc5)cc([n+]42)-c2cccc[n+]23)c1.F[P-](F)(F)(F)(F)F.F[P-](F)(F)(F)(F)F [Complex 4] |  |  |  | very weak signal could be found in both the surface and deep inside of the cell | strong signal for Pt residues found in both the membrane/cytoplasm and nucleus of the cell

— publication PMC7199514 (Frontiers in Chemistry, 2020)
